# From patent US11542249B2, “BTK inhibitor compounds” (Eli Lilly and Company, priority 2017, dated 2023)
# At least one compound was matched to its structure with a doubt left.
# Test system: type II collagen-induced arthritis (CIA) rat model
# Assay: Rat In Vivo Collagen-Induced Arthritis Assay
# Set-up: species or system Female Lewis rats
# Conditions: compared to vehicle treated CIA rats
# Procedure: A type II collagen-induced arthritis (CIA) rat model may be used to evaluate the therapeutic effects of compounds. Female Lewis rats (Charles River Charles River Laboratories, Inc.) with a mean body weight of 155-175 g are used for the study. Animals are fed with standard rodent chow and provided water ad libitum. Immunization emulsion is prepared with 2 mg/ml bovine collagen-II mixed with an equal volume of incomplete Freund's adjuvant (IFA). Rats are immunized intradermally with 0.4 ml collagen emulsion in two sites each on the lower lumbar region, above the base of the tail on day 1, and again on day 8. Animals are randomized based on the paw thickness and body weight on day 11 into study groups, with 8 rats in each group. Compounds are prepared in 1% HEC/0.25% P80/0.05% anti-foam in purified water and dosed daily via oral gavage for 9 days. Paw thickness is quantitated daily using a caliper measurement in the right ankle site.
# The inhibition by the compounds of the invention is evaluated using Dunnett's post test for multiple comparisons for the CIA rat groups treated with the indicated Example compound, at the indicated dose, as compared to CIA rat groups treated with vehicle, and differences of P<0.05 are considered to be significant. […] Mean sum paw thickness is decreased compared to vehicle treated CIA rats. […]
structure (smiles),measurement,value
"C=CC(=O)N1CC[C@H](Nc2cncc(-c3cnc(Oc4cccc(OC(F)F)c4)nc3)c2)C1 [Example 5, 1-[(3S)-3-[[5-[2-[3-(difluoromethoxy)phenoxy]pyrimidin-5-yl]-3-pyridyl]amino]pyrrolidin-1-yl]prop-2-en-1-one]",arthritis severity in CIA rats,dose-related reduction
